# Results from one PubChem assay

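Viability of the NB-EBc1 childhood neuroblastoma line is estimated by a luminescent live-cell signal two days after dosing.
Each compound was run as a dilution series, mostly topping out near 46 µM.
The value is the fitted half-maximal concentration (AC50, nM) from the dose curve; a lower value means stronger potency.
Calls come from the curve class and a curve-based score; inconclusive covers scores of 1 to 39, such as weak, poorly fitted, top-dose-only or opposite-direction curves.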

Values are in nM.
Every entry below has the call inconclusive.
These entries are mostly ones the record files as inconclusive; other results of the assay are not listed here.
A potency from a partial, single-point or poor curve is only a rough figure.
Some entries filed as inconclusive have a full curve.
The first word of each remark tells which way the curve ran; it can be opposite to the aim of the assay.
Activity scores are not listed here.

SMILES | Potency (nM) | remark
CON(C)C(=O)N1N=C(c2cc(F)ccc2F)S[C@]1(CCCN)c1ccccc1 | 41.4 | cytotoxic, full curve
CCC(=O)OCC(=O)[C@@]1(OC(=O)CC)[C@@H](C)C[C@@H]2[C@H]3CCC4=CC(=O)C=C[C@]4(C)[C@@]3(F)[C@@H](O)C[C@@]21C | 8266 | cytotoxic, single point
NC(=O)c1cccc2cn(-c3ccc([C@@H]4CCCNC4)cc3)nc12 | 11676 | cytotoxic, partial curve
O=C(Nc1ncc(-c2cc(C(F)F)nn2-c2c(Cl)cccc2Cl)s1)C1CC1 | 927.5 | cytotoxic, full curve
Nc1nc(Cl)nc2c1ncn2[C@@H]1O[C@H](CO)[C@@H](O)[C@@H]1F | 1470 | cytotoxic, full curve
CCOc1cc2ncc(C#N)c(Nc3ccc(OCc4ccccn4)c(Cl)c3)c2cc1NC(=O)C=CCN(C)C | 2933 | rising, full curve, poor fit
CCN(CC)CCOc1ccc2c(c1)C(=O)c1cc(OCCN(CC)CC)ccc1-2 | 10406 | cytotoxic, partial curve
CC(C)n1nc(-c2ccc3oc(N)nc3c2)c2c(N)ncnc21 | 261.4 | cytotoxic, full curve, poor fit
CCc1nc(N)nc(N)c1-c1ccc(Cl)cc1 | 7367 | cytotoxic, full curve
Oc1ccc(-c2ccc(-c3cc(Nc4cccc(CNC5CC5)c4)n[nH]3)cc2)c(O)c1 | 8266 | cytotoxic, partial curve
CN/C(=C\[N+](=O)[O-])NCCSCc1ccc(CN(C)C)o1 | 36.9 | rising, full curve, poor fit
O=C(NCc1ccncc1)C12C[C@H]3C[C@@H](C1)CC(c1ccc(Cl)cc1)(C3)C2 | 23297 | cytotoxic, single point
C[C@@]12OC(=O)[C@]1([C@@H](O)[C@@H]1C=CCCC1)NC(=O)[C@H]2CCCl | 414.3 | cytotoxic, full curve, poor fit
CC(C)n1c(C=C[C@H](O)C[C@H](O)CC(=O)O)c(-c2ccc(F)cc2)c2ccccc21 | 1470 | cytotoxic, full curve, poor fit
COc1cc([C@@H]2c3cc4c(cc3[C@H](O)[C@H]3COC(=O)[C@H]23)OCO4)cc(OC)c1OC | 32.9 | cytotoxic, full curve
O=C(Nc1cccc(Br)c1)c1cccc(S(=O)(=O)N2CCCCCC2)c1 | 36924 | cytotoxic, single point
O=C(O)c1ccc(-c2cc3cccnc3c(-c3ccc4nonc4c3)n2)cc1 | 11676 | cytotoxic, single point
CNC(=O)c1nn(C)c2c1C(C)(C)Cc1cnc(Nc3ccc(N4CCN(C)CC4)cc3)nc1-2 | 2076 | cytotoxic, full curve
COc1ccc2c(Oc3ccc(NC(=O)c4c(C)n(CC(C)(C)O)n(-c5ccccc5)c4=O)cc3F)ccnc2c1 | 36924 | cytotoxic, single point
CCCOc1ccc2nc(NC(=O)OC)[nH]c2c1 | 1310 | cytotoxic, full curve
COc1ccc(-c2nc(N3CCOCC3)c3sc(CN(C)c4ncc(C(=O)NO)cn4)cc3n2)cn1 | 2933 | cytotoxic, full curve, poor fit
Cc1cc(C(=O)N2CCN(c3cccc(Cl)c3)CC2)n(-c2ccccc2)n1 | 1470 | cytotoxic, full curve
COC(=O)Nc1nc2ccc(S(=O)c3ccccc3)cc2[nH]1 (stereo not given) | 656.6 | cytotoxic, full curve
Cn1cc(-c2cnn3c(N)c(Br)c([C@H]4CCCNC4)nc23)cn1 | 1470 | cytotoxic, full curve
CCC1=C[C@@H]2CN(C1)Cc1c([nH]c3ccccc13)[C@@](C(=O)OC)(c1cc3c(cc1OC)N(C)[C@H]1[C@@](O)(C(=O)OC)[C@H](OC(C)=O)[C@]4(CC)C=CCN5CC[C@]31[C@@H]54)C2 | 261.4 | cytotoxic, full curve
COC(=O)C1C2CC3c4[nH]c5cc(OC)ccc5c4CCN3CC2CC(OC(=O)c2cc(OC)c(OC)c(OC)c2)C1OC (stereo not given) | 32909 | cytotoxic, single point
COc1cc([C@@H]2c3cc4c(cc3[C@@H](O[C@@H]3O[C@@H]5CO[C@@H](c6cccs6)O[C@@H]5[C@H](O)[C@@H]3O)[C@H]3COC(=O)[C@H]23)OCO4)cc(OC)c1O | 521.6 | cytotoxic, full curve, poor fit
CC(C(C)N1CC(=O)NC(=O)C1)N1CC(=O)NC(=O)C1 (stereo not given) | 1649 | cytotoxic, full curve
Cc1ccc2nc(NC(=O)CSc3nc4c(c(=O)n3-c3ccccc3)SCC4)sc2c1 | 10406 | cytotoxic, partial curve
COc1cc2c(cc1Cc1cccc(Cl)c1F)c(=O)c(C(=O)O)cn2[C@H](CO)C(C)C | 23297 | cytotoxic, single point
CC(C)[C@]12O[C@@H]1[C@@H]1O[C@]13[C@]1(O[C@H]1C[C@@H]1C4=C(CC[C@@]13C)C(=O)OC4)[C@H]2O | 116.8 | cytotoxic, full curve
O=C(NC1CC1)c1cccc(-c2ccc3c(NC(=O)C4CC4)n[nH]c3c2)c1 | 13101 | cytotoxic, partial curve
CN1N=C(N)c2cn([C@@H]3O[C@H](COP(=O)(O)O)[C@@H](O)[C@@H]3O)c3ncnc1c23 | 5852 | cytotoxic, partial curve
Nc1ccn([C@@H]2O[C@H](CO)[C@H](O)C2(F)F)c(=O)n1 | 521.6 | cytotoxic, full curve, poor fit
CC(C)c1cc(C(=O)N2Cc3ccc(CN4CCN(C)CC4)cc3C2)c(O)cc1O | 826.6 | cytotoxic, full curve, poor fit
O=C1NC(=O)[C@@H](c2cn3c4c(cccc24)CCC3)[C@H]1c1c[nH]c2ccccc12 | 1310 | cytotoxic, full curve
CC(=O)N1CCN(c2ccc(OCc3nn(C)c(C)c3-c3cccc4c(CCCOc5cc(C)c(Cl)c(C)c5)c(C(=O)O)n(Cc5cccnc5)c34)cc2)CC1 | 36924 | cytotoxic, single point

Some entries from above, unchanged:

Result for COC(=O)C1C2CC3c4[nH]c5cc(OC)ccc5c4CCN3CC2CC(OC(=O)c2cc(OC)c(OC)c(OC)c2)C1OC (stereo not given) was Potency 32909 nM (cytotoxic, single point).
Result for O=C1NC(=O)[C@@H](c2cn3c4c(cccc24)CCC3)[C@H]1c1c[nH]c2ccccc12 was Potency 1310 nM (cytotoxic, full curve).

From PubChem BioAssay record AID1347115 (NCATS, 2019).